Measurements reported in PubChem BioAssay AID720505 (Drosophila RNAi Screening Center, 2013)
Screen: 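Fly regulators or components of the CRAC channel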 (primary screen). Cell system: Drosophila S2R+ cells. Knock-down reagent: long dsRNA against Drosophila genes. Treatment: thapsigargin (2 µM) in calcium-free buffer to empty internal stores, then 2 mM calcium added back. Read-out: 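Stores emptied by 2 µM thapsigargin without calcium, then 2 mM calcium re-added; fluo-4 fluorescence followed by FLIPR in 384-well plates, per-well averaged endpoint, raw; two screen passes, some wells retested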. Reading the numbers: calcium signal and retest calcium signal: higher = more calcium entry after store depletion. Active means: 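About 1500 genes called as lowering calcium entry, by varying amounts, judged against per-plate control wells with STIM1 as positive and Rho1 as negative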. Calls: active = called as lowering calcium entry; inactive = not called.
The deposit covers about 20,000 reagents; this is a random part of those with a known target gene and a result. In the full data, about 2,100 (10%) got an active call. 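Raw plate signals without normalisation; calls rest on control-based scores that were not deposited; replicate 2 separates called from uncalled poorly.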 Entries without a mark were called inactive. Names joined by + are all predicted targets of the reagent. Not given: the amount of reagent, the time to read-out.

no.	gene	dsRNA	calcium signal, replicate 1	calcium signal, replicate 2	retest calcium signal, replicate 1	retest calcium signal, replicate 2
1	Grx3	DRSC02966	85.6	127		
2	Shawl	DRSC02209	168	175		
3	Shawl	DRSC02748	159	120		
4	CG43153	DRSC01189	201	87.1		
5	CG8329	DRSC10978	90.2	93.9		
6	Tsp42Ef	DRSC06191	106	83.4		
7	fj	DRSC07619	185	155		
8	dob	DRSC19948	153	108		
9	CG13202	DRSC06326	99.5	155		
10	CG5541	DRSC19946	103	94.5		
11	CG13896	DRSC08366	95.4	146		
12	CCT3	DRSC16602	233	272		
13	sd	DRSC20370	92.5	146		
14	sd	DRSC21712	86.5	141		
15	CG7054	DRSC16185	225	245		
16	CG42557 + CG42558	DRSC16329	128	140		
17	CG14625	DRSC18633	134	130		
18	CG9394	DRSC04550	215	78.9		
19	CG5681	DRSC02876	110	113		
20	gsb-n	DRSC04021	115	112		
21	gsb-n	DRSC04693	93.8	138		
22	AGO1	DRSC05912	202	235		
23	Gclc	DRSC18666	165	127		
24	CG1738	DRSC19772	74.5 (active)	105		
25	CG42750	DRSC02458	68.7 (active)	49.8	104	86.6
26	CG42750	DRSC03019	109	98		
27	CG42750	DRSC03024	67.4 (active)	104		
28	CG42750	DRSC21414	164	117		
29	CG42750	DRSC23218	144	156		
30	CG8195	DRSC07103	135	102		
31	IntS11	DRSC15407	99.5	137		
32	oys	DRSC05203	73.8	96.1		
33	oys	DRSC06751	171	163		
34	CG14000	DRSC02332	209	102		
35	CG4511	DRSC15589	160	85.1		
36	CG13069	DRSC09952	90.5	159		
37	Nadk1b	DRSC05432	121	122		
38	Nadk1b	DRSC06964	152	144		
39	Nadk1b	DRSC06965	106	228		
40	Ufd1	DRSC10607	133	162		
41	CG15140	DRSC02440	131	108		
42	CG10738	DRSC09792	84.3	112		
43	CG8149	DRSC16391	139	96.8		
44	Pym	DRSC22492	80.8	163		
45	Pym	DRSC23017	80.4	114		
46	twr	DRSC12491	138	169		
47	CtsL1	DRSC05462	121	125		
48	CtsL1	DRSC07363	165	185		
49	CG14785	DRSC18604	69.5	93.5		
50	CG7387	DRSC10833	109	88.3		
51	CG13154	DRSC06279	97.7	146		
52	betaGlu	DRSC15419	102	156		
53	CG18536	DRSC06763	187	115		
54	CG13457	DRSC10004	91.6	111		
55	CG3500	DRSC04379	59.1 (active)	182		
56	CG14826	DRSC10197	76.2	61		
57	CG14866	DRSC14989	114	170		
58	CG9926	DRSC16582	80	167		
59	Tsp66A + CG42661 + CG42660	DRSC10233	130	87		
60	CG13924	DRSC08393	95.6	103		
61	Sardh	DRSC06981	188	147		
62	Trmt112	DRSC11685	116	116		
63	PGRP-SC1a	DRSC06482	134	172		
64	IntS9	DRSC10493	98.3	77		
65	CG32086	DRSC10586	113	97		
66	PIG-F	DRSC11069	124	149		
67	CG14106	DRSC10109	84.5	81.1		
68	CG1142	DRSC12531	106	185		
69	slim	DRSC06921	72.2 (active)	134		
70	Rpn11	DRSC03422	65.8 (active)	102		
71	CG9300	DRSC11064	102	109		
72	CG13071	DRSC09954	91.8	134		
73	lace	DRSC03564	100	166		
74	spartin	DRSC12187	90.6 (active)	96.2		
75	CG11180	DRSC06055	132	81.8		
76	Prosbeta2	DRSC11257	80.9	69.9		
77	Vps26	DRSC18555	75.9 (active)	97.9		
78	CG1724	DRSC20548	202	81.4		
79	CG14187	DRSC10186	72.5 (active)	109		
80	CG3216	DRSC04347	224	80.4		
81	l(3)72Dn	DRSC10468	101	136		
82	CG8323	DRSC07149	71.2	146		
83	BomT3	DRSC15871	169	160		
